Reference: PMC12012799
No constants are given. Whether binding was seen depends on the method and setting. A result given as binding can be weak or reduced; the word gives no strength. Sequences can lack the tags named with a protein.

Target: full-length GST-TPXL3 (TPX2-LIKE 3) (Arabidopsis thaliana)
Assay: pull-down; GST-fused TPXL3 or TPXL3 truncations and His-fused AUR1 mixed with glutathione beads, 4 °C for 2 h; beads washed 5 times; eluted by boiling in SDS loading buffer, SDS-PAGE; both purified

- binding: binds
B1: 6xHis-AUR1 (Aurora 1, an α Aurora kinase of Arabidopsis thaliana) (enzyme, UniProt Q9M077 1-294)
chain: MAIPTETQHQEKEASDASAAAAQKRWTLSDFDIGKPLGRGKFGHVYLAREKRSNHVVALKVLFKSQLQQSQVEHQLRREVEIQSHLRHPNILRLYGYFYDQKRVYLILEYAARGELYKDLQKCKYFSERRAATYVASLARALIYCHGKHVIHRDIKPENLLIGAQGELKIADFGWSVHTFNRRRTMCGTLDYLPPEMVESVEHDASVDIWSLGILCYEFLYGVPPFEAMEHSDTYRRIVQVDLKFPPKPIISASAKDLISQMLVKESSQRLPLHKLLEHPWIVQNADPSGIYRV
